# Experimental data: PubChem BioAssay AID1259354 (Paczesny and Yang Labs, IUPUI and University of Michigan, 2018)
# Amino acid sequences for entries named in this document (tags omitted). A change or cut given only in a name is not applied to a line headed by its entry.
# UniProt Q01638: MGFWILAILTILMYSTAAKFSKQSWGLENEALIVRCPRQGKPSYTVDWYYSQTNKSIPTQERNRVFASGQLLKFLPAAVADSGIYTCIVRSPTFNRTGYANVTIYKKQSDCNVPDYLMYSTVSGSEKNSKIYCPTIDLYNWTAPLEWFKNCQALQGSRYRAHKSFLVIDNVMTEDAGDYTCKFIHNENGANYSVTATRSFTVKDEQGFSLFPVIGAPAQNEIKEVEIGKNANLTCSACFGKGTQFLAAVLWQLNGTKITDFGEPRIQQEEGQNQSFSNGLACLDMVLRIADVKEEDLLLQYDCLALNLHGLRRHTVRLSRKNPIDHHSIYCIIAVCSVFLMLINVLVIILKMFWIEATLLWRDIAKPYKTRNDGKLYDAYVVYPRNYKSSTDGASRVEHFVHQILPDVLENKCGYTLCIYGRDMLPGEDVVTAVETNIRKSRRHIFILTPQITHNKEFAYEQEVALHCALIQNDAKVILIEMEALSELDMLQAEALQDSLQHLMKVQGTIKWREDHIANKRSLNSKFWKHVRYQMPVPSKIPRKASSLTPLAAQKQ
# Where “and” joins values, the source holds several entries; their conditions need not be identical. Identical values can stand only once. Among all 78,000 compounds or so, about 1,800 (2.3%) were called active. The inconclusive results got no clear call from the source; some entries with a clear call stand among them for comparison. Cut-off read from the data, not from the text of the source: active = inhibition above about 30%; inconclusive = mostly about 10% to 28%; inactive = weaker than that.
# Biological target: Interleukin-1 receptor-like 1 (Homo sapiens) (UniProt Q01638)
# Assay: blocks human ST2 binding to IL-33, primary screen, biochemical, AlphaLISA (AID 1259354)
# Conditions: AlphaLISA ST2-Fc/biotin-IL-33 interaction, 1 h; at 17 µM, stronger effect = higher value
row,Structure (SMILES),inhibition
1,O=C1c2ccccc2-c2c1cccc2C(=O)N1CCOCC1,inconclusive: 27%
2,C=CCSc1nnc2c(n1)OC(c1ccc(N(C)C)cc1)N(C(C)=O)c1ccccc1-2 (stereo unspecified),inconclusive: 24%
3,CCOc1ccc(-c2cnc(-c3cccc(C(=O)OC)n3)[nH]2)cc1,inconclusive: 11%
4,CC(C)Oc1ccc(Cc2c(O)nc(N)[nH]c2=O)cc1,inactive
5,COC(=O)c1cccc(C(=O)N2CCCC(Nc3ccc(C(C)C)cc3)C2)c1 (stereo unspecified),inconclusive: 13%
6,c1ccc(-c2[nH]cnc2-c2cccc(-n3cccn3)c2)cc1,inconclusive: 19%
7,Cc1c(N=Cc2ccc(N(C)C)c([N+](=O)[O-])c2)c(=O)n(-c2ccccc2)n1C,inactive
8,COC(=O)Oc1c(Cl)cc2oc(=O)sc2c1Br,inconclusive: 19%
9,COc1ccc(-c2nc(CN3CCCC3c3ccccn3)c(C)o2)cc1 (stereo unspecified),inconclusive: 24%
10,Cc1ccc(N2C(=O)C(N3C(=O)c4ccccc4C3=O)C2c2ccc(N(C)C)cc2)cc1F (stereo unspecified),active: 31% and inconclusive: 23%
11,CCC(NC(=O)C(C)(C)C)c1ccc(C)cc1C (stereo unspecified),inconclusive: 13%
12,Cc1ccc(CNc2cccc(C(=O)N(C)CC3CCCCO3)c2)s1 (stereo unspecified),inactive
13,Cc1cccnc1CC(C)Nc1ccc(-c2nccn2C)nn1 (stereo unspecified),inactive
14,COc1cc(F)ccc1-c1ccccc1NC(=O)CN,inconclusive: 21%
15,O=C(NCCc1ccccc1)c1ccc([N+](=O)[O-])cc1,inconclusive: 10%
16,FC(F)(F)c1ccnc(N2CC[C@H](c3nnc(-c4ccccc4)o3)C2)n1,inconclusive: 12%
17,CC1OC(Nc2ccccc2[N+](=O)[O-])C(O)C(O)C1O (stereo unspecified),inactive
18,CCC(=O)N1c2ccccc2-c2nnc(SC)nc2OC1c1cccs1 (stereo unspecified),inconclusive: 10%
19,Cc1ccc(S(=O)(=O)N2C[C@H]3C[C@H](O)[C@H](O)C[C@H]3C2)c(F)c1,inactive
20,CCn1c(-c2ccccc2F)nc2cc(NC(C)=O)cc(C(=O)NCC(C)Oc3cccnc3)c21 (stereo unspecified),inactive
21,Cc1cc(C)n(-c2ccc(NC(=O)C3CCN(C(=O)CCc4ccccn4)CC3)cc2)n1,inconclusive: 19%

row,Structure (SMILES),inhibition
1,COc1ccc(-c2c(C)n[nH]c2C)cn1,inconclusive: 12%
2,CCCn1nc(C(=O)N2CCCC2)c2c1CCC(N1CCN(c3ccccc3OCC)CC1)C2 (stereo unspecified),inconclusive: 12%
3,COc1ccc(-n2cc(-c3ccc4c(c3)OCO4)[nH]c2=O)cc1,inconclusive: 10%
4,c1cc(-c2ccc3cc[nH]c3c2)c2ccncc2c1,inconclusive: 10%
5,O=C1C2C3C=CC(C3)C2C(=O)N1Cc1ccc(F)cc1 (stereo unspecified),inactive
6,CC(C(=O)N1CC(c2cccnc2)C1)n1cnc2ccccc21 (stereo unspecified),inconclusive: 15%
7,O=C1NC(=Nc2cccc(Cl)c2Cl)S/C1=C/c1ccco1,inactive
8,CN(CCC1CCCCO1)C1CCN(c2ccc(NC(=O)C3CCCC3)cc2)CC1 (stereo unspecified),inconclusive: 10%
9,O=C(O)COCC(=O)N1CC[C@H](c2nc3ccccc3o2)C1,inconclusive: 15%
10,CCOc1ccccc1N1CCN(Cc2cccc([N+](=O)[O-])c2)CC1,inconclusive: 27%
11,CCCOc1ccccc1C1NC(=O)NC(C)=C1C(=O)OCCSC (stereo unspecified),inactive
12,COc1ccc(CN2C[C@H](O)C[C@H]2c2nc(-c3ccccc3)no2)cc1,inactive
13,NC(=O)[C@@H](Cc1ccccc1)NC(=O)C1=C[C@@H](NC(=O)c2cnccn2)[C@@H](O)[C@H](O)C1,inconclusive: 12%
14,CCN(CC)C(=O)Cn1cnc2sc(C(=O)Nc3ccc4c(c3)OCO4)c(C)c2c1=O,inconclusive: 17%
15,O=S(=O)(c1cccc2nsnc12)N1CCN(c2cccc(Cl)c2)CC1,inactive
16,Cc1cc(Br)cc(C)c1N1C(=O)C2CCCCC2C1=O (stereo unspecified),inconclusive: 14%
17,O=C(NC1CCCC1)C1CCC(=O)N1Cc1ccc(F)cc1 (stereo unspecified),inactive
18,Cc1cc(O)c(C(C[N+](=O)[O-])c2ccc(F)cc2)c(=O)o1 (stereo unspecified),inconclusive: 11%
19,CN1CCC=C(CNC(=O)CSc2ccccc2)C1,inconclusive: 21%
20,Cc1[nH]nc(SCC(=O)Nc2cccc(Cl)c2C)c1[N+](=O)[O-],inactive
21,O=C(Nc1nnc(-c2ccc3c(c2)OCO3)s1)c1ccc(Cl)cc1,inactive

row,Structure (SMILES),inhibition
1,CNCCCC12CCC(c3ccccc31)c1ccccc12,inconclusive: 10%
2,Cc1ncsc1CCC(=O)NCc1cn[nH]c1-c1ccc(F)cc1,inconclusive: 14%
3,Cc1csc(NC(=O)CN2C(=O)CCc3cc(S(=O)(=O)N4CCCC4)ccc32)n1,inactive
4,O=c1[nH]nc(CCCO)n1CCc1ccccc1F,inconclusive: 11%
5,c1ccc(CCN2CCCC(Cn3ccnc3)C2)cc1 (stereo unspecified),inconclusive: 15%
6,Cc1ccccc1C(CNC1CCN(C(=O)c2ccccc2)CC1)N(C)C (stereo unspecified),inconclusive: 13%
7,CC(NC(=O)CSc1cc(=O)n(C)c2ccccc12)c1ccc2c(c1)OCCO2 (stereo unspecified),inactive
8,COc1ccccc1/C=C/CN1CCC2(CC1)C(=O)NCCN2C,inconclusive: 10%
9,C#CCOc1cc(Br)c(/C=C2/NC(=O)NC2=O)cc1OCC,inactive
10,Cc1n[nH]c(C)c1CCCN(C)c1nccc(N2CCCC(O)C2)n1 (stereo unspecified),inconclusive: 15%
11,CCCCOc1ccc(C(=O)Nc2cc([N+](=O)[O-])ccc2C)cc1,inconclusive: 14%
12,O=c1/c(=C/c2cccc([N+](=O)[O-])c2)sc2n1CN(c1ccc3c(c1)OCO3)CN=2,active: 36%
13,CC1(C)CC(=O)C2=C(C1)NC1=C(C(=O)CC(C)(C)C1)C2c1cccs1,inconclusive: 12%
14,Cc1ccsc1-c1cn(C(Cn2ccnc2)c2ccccc2)nn1 (stereo unspecified),inconclusive: 15%
15,O=C(CSc1c2c(nc3ccccc13)CCC2)Nc1ccc2c(c1)OCCO2,inactive
16,N#CC1=C(N)Oc2n[nH]c(-c3ccc4c(c3)OCO4)c2C1c1c(F)cccc1Cl (stereo unspecified),inactive
17,COc1ccccc1C(CC(=O)N1CCCC1)c1ccc2c(c1)OCO2 (stereo unspecified),inconclusive: 10%
18,O=C(CCc1ccco1)NC1CCCN(CCc2ccccc2)C1 (stereo unspecified),active: 31%
19,COc1ccc(/C=C/C(=O)OC[C@H]2O[C@@H](OC(CCc3ccc(O)c(O)c3)CC(=O)CCc3ccc(O)c(O)c3)[C@H](O)[C@@H](O)[C@@H]2O)cc1OC (stereo partly specified),inconclusive: 15%
